Assay results reported in US5780590A (Rhone-Poulenc Rorer Pharmaceuticals Inc., priority 1996, dated 1998).

Assay: general procedure: solution-phase peptide synthesis; TBTU
Conditions: coupling step

| Substance | final HPLC purity (HPLC (A %)) [A %] | step yield (theoretical yield) [%] | step yield [%] |
| --- | --- | --- | --- |
| CBZ-PipBu-N(Et)Gly-(L)-Asp(OBzl)-(L)-Cha-NH2 | >99 | 84 | – |
| CBZ-PipBuen-N(Et)Gly-(L)-Asp(OBzl)-(L)-Cha-NH2 | – | – | 83 |
